Results are given in words; binding and its absence hold for the method and conditions named. Some results given as binding are weak or reduced against the parent protein; the word gives no strength.
T1: cyno Macaque CTLA-4 (cyno Macaque) (UniProt G7PL88)
T1 sequence: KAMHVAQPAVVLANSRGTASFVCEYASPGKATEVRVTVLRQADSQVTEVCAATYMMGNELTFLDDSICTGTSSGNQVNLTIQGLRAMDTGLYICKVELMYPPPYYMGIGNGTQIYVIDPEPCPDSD

Sequences of proteins named here, by UniProt entry; tags and fusion partners are left off. A change or cut given only in a name is not applied to a line headed by its entry.
UniProt P16410: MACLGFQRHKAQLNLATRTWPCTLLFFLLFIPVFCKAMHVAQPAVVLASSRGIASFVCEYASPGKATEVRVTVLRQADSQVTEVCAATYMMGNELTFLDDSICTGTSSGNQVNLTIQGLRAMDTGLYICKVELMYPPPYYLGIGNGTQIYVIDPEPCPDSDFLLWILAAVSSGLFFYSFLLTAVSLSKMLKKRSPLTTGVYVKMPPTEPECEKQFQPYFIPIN


Experiments:
[1] = molecular target: T1, cyno Macaque CTLA-4 (cyno Macaque); experiment: summary of Examples 1-5
[2] = molecular target: human CTLA-4 (human) (UniProt P16410); experiment: summary of Examples 1-5

binding [1]	binding [2]	Binder
binds		MAb A4 (13F10D7) (antibody, V domains shown) VH: EVQLRQSGPELVKPGTSVKISCKASGYKFTDHFINWVKQNHGKSLEWIGDINPNNGGTNSNQKFEGKATLTVDKSSSTAYMELRSLTSEDSAVYYCARLRREYFYAMDYWGQGTSVTVSS VL: DIVMTQAAFSNPVTLGTSASISCRSSKSLLHSNGITYLYWYLQKPGQSPQLLIYQMSNLASGVPDRFSSSGSGTDFTLRISRVEAEDVGVYYCAQNLELPLTFGAGTKLELK
binds	binds	Humanized Ab 14 (VH6 + VL3) (antibody, human IgG1, kappa, V domains shown) VH: QVQLVQSGAEVKKPGASVKVSCKASGYKFTDHFINWVKQAPGQGLEWIGDINPNNGGTNSNQKFEGKATLTVDKSISTAYMELRRLRSDDTAVYYCARLRREYFYAMDYWGQGTLVTVSS VL: DIVMTQSPLSLPVTPGEPASISCRSSKSLLHSNGITYLYWYLQKPGQSPQLLIYQMSNLASGVPDRFSSSGSGTDFTLKISRVEAEDVGVYYCAQNLELPLTFGGGTKLEIKR

Reference: patent publication US20200055937A1
